{"source": "patent US20040241754A1", "about": "“Modulating neuronal plasticity” (The Salk Institute for Biological Studies, priority 2003, published 2004)", "binders": {"B1": {"name": "GluR2 carboxy terminal peptide (peptide)", "peptide": "NVYGIESVKI", "notes": "also called GluR2ct; R2ct"}}, "key": {"His-GRIP-PDZ6 [1]": {"target": "T1, His-GRIP-PDZ6 (UniProt P97879 672-754)", "T1 construct": "domain: PDZ 6; also called GRIP fragment containing only the PDZ 6 domain; PDZ domain 6 of GRIP; not shown: His tag", "T1 sequence (looked up)": "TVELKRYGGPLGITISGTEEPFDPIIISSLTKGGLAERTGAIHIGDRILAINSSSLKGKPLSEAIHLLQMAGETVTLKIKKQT", "experiment": "summary of the displacement assay with His-GRIP-PDZ6"}, "His-GRIP-PDZ6 [2]": {"target": "T1, His-GRIP-PDZ6", "experiment": "displacement of labeled EphB2 from GRIP PDZ6 fragment"}}, "note": "These are yes or no findings as the source states them, for the method shown. Some entries that bind do so weakly or less than the wild type."}
{"binder": "B1", "values": [{"measurement": "binding", "setting": "His-GRIP-PDZ6 [1]", "value": "binds"}, {"measurement": "binding", "setting": "His-GRIP-PDZ6 [2]", "value": "binds"}]}
